# Reference: PubChem BioAssay AID212 (DTP/NCI, 2004)
# The list is a part of this screen's results and no random one: it gathers some chemical classes. Other doses and runs of a compound may be missing. T/C gives the treated animals as a percentage of the vehicle group. Schedules are NCI's codes, taken here to give the interval after Q, in days (D) or hours (H), and the number of doses after X. Some T/C values are followed by the survivors on the day toxicity was checked; where neither a count nor a note follows, no animal had died by that day. Some entries were tested several times; their values stand side by side, smallest first. Some entries show no survivor count and are marked so; the dose need not have been tolerated. Some doses have a count of surviving animals in place of a T/C: the source files T/C as zero there, which appears to mark a toxic dose or a test without result, not a measured value. Counts of survivors are from the toxicity check, whose day is not always given; animals may have died later.
# Test system: BDF1 mice, colon carcinoma 38 sc, T/C %
# Assay: NCI In Vivo Anticancer Drug Screen. Data for tumor model Colon Carcinoma 38 (subcutaneous) in B6D2F1 (BDF1) mice
# Details: T/C endpoint: median tumor weight (est.), schedule: Q07DX002 (ip), higher T/C = larger tumour
# Experimental: The antitumor activity of compounds was measured in mice bearing transplantable tumors. Survival or tumor size were measured and the results are expressed as the measurement made in the treated group (T) divided by the measurement made in the vehicle treated control group (C). The tumor model used in this assay is Colon Carcinoma 38 (subcutaneous) in B6D2F1 (BDF1) mice
# [1] = dose: 6.25 mg/kg/injection, vehicle: Klucel (hydroxypropylcellulose) (HPC), evaluated on day 20
# [2] = dose: 50.0 mg/kg/injection, vehicle: Klucel (hydroxypropylcellulose) (HPC), evaluated on day 20
# [3] = dose: 100.0 mg/kg/injection, vehicle: Klucel (hydroxypropylcellulose) (HPC), evaluated on day 20
# [4] = dose: 200.0 mg/kg/injection, vehicle: Klucel (hydroxypropylcellulose) (HPC)
compound,measurement,setting,value
ClCCN(CCCl)c1ccccc1,T/C,[1],63 % of control
same,T/C,"dose: 6.25 mg/kg/injection, vehicle: saline, evaluation day not shown",43 % of control [survivor count not shown]
same,T/C,"dose: 7.5 mg/kg/injection, vehicle: Klucel (hydroxypropylcellulose) (HPC), evaluated on day 20",113 % of control
same,T/C,"dose: 12.5 mg/kg/injection, vehicle: Klucel (hydroxypropylcellulose) (HPC), evaluated on day 20",46 % of control
same,T/C,"dose: 12.5 mg/kg/injection, vehicle: Klucel (hydroxypropylcellulose) (HPC), evaluation day not shown",127 % of control [survivor count not shown]
same,T/C,"dose: 12.5 mg/kg/injection, vehicle: saline with Tween-80, evaluation day not shown",75 [survivor count not shown] and 149 % of control [survivor count not shown]
same,T/C,"dose: 12.5 mg/kg/injection, vehicle: saline, evaluation day not shown",48 % of control [survivor count not shown]
same,T/C,"dose: 15.0 mg/kg/injection, vehicle: Klucel (hydroxypropylcellulose) (HPC), evaluated on day 20",68 and 83 % of control [9 of 10 alive on day 20]
same,T/C,"dose: 25.0 mg/kg/injection, vehicle: Klucel (hydroxypropylcellulose) (HPC), evaluated on day 20",72 % of control
same,T/C,"dose: 25.0 mg/kg/injection, vehicle: Klucel (hydroxypropylcellulose) (HPC), evaluation day not shown",69 % of control [survivor count not shown]
same,T/C,"dose: 25.0 mg/kg/injection, vehicle: saline with Tween-80, evaluation day not shown",44 [survivor count not shown] and 108 % of control [survivor count not shown]
same,T/C,"dose: 25.0 mg/kg/injection, vehicle: saline, evaluation day not shown",45 % of control [survivor count not shown]
same,T/C,"dose: 30.0 mg/kg/injection, vehicle: Klucel (hydroxypropylcellulose) (HPC), evaluated on day 20",17 [9 of 10 alive on day 20] and 85 % of control
same,T/C,[2],5 % of control
same,T/C,"dose: 50.0 mg/kg/injection, vehicle: Klucel (hydroxypropylcellulose) (HPC), evaluation day not shown",51 % of control [survivor count not shown]
same,T/C,"dose: 50.0 mg/kg/injection, vehicle: saline with Tween-80, evaluation day not shown",31 [survivor count not shown] and 47 % of control [survivor count not shown]
same,T/C,"dose: 50.0 mg/kg/injection, vehicle: saline, evaluation day not shown",17 % of control [survivor count not shown]
same,T/C,"dose: 60.0 mg/kg/injection, vehicle: Klucel (hydroxypropylcellulose) (HPC), evaluated on day 20",62 % of control
same,T/C,[3],2 % of control [7 of 10 alive on day 20]
same,T/C,"dose: 100.0 mg/kg/injection, vehicle: saline with Tween-80, evaluation day not shown",12 [survivor count not shown] and 15 % of control [survivor count not shown]
same,T/C,"dose: 120.0 mg/kg/injection, vehicle: Klucel (hydroxypropylcellulose) (HPC), evaluated on day 20",10 % of control [9 of 10 alive on day 20]
same,survivor count,[4],0 of 10 on day 20
same,T/C,"dose: 240.0 mg/kg/injection, vehicle: Klucel (hydroxypropylcellulose) (HPC), evaluated on day 20",27 % of control [7 of 10 alive on day 20]
Cc1ccc(N(CCBr)CCBr)cc1,T/C,[1],123 % of control
same,survivor count,"dose: 12.5 mg/kg/injection, vehicle: Klucel (hydroxypropylcellulose) (HPC)",3 of 10 on day 20
same,survivor count,"dose: 25.0 mg/kg/injection, vehicle: Klucel (hydroxypropylcellulose) (HPC)",4 of 10 on day 20
same,survivor count,"dose: 50.0 mg/kg/injection, vehicle: Klucel (hydroxypropylcellulose) (HPC)",0 of 10 on day 20
same,survivor count,"dose: 100.0 mg/kg/injection, vehicle: Klucel (hydroxypropylcellulose) (HPC)",0 of 10 on day 20
same,survivor count,[4],0 of 10 on day 20
NS(=O)(=O)c1ccc(N(CCCl)CCCl)cc1,T/C,[2],85 % of control
same,T/C,[3],93 % of control
same,T/C,"dose: 100.0 mg/kg/injection, vehicle: Klucel (hydroxypropylcellulose) (HPC), evaluation day not shown",143 % of control [survivor count not shown]
same,T/C,"dose: 200.0 mg/kg/injection, vehicle: Klucel (hydroxypropylcellulose) (HPC), evaluation day not shown",118 % of control [survivor count not shown]
CC1=CC(=O)C(N(CCCl)CCCl)=CC1=O,T/C,"dose: 0.09 mg/kg/injection, vehicle: Klucel (hydroxypropylcellulose) (HPC), evaluated on day 20",99 % of control
same,T/C,"dose: 0.19 mg/kg/injection, vehicle: Klucel (hydroxypropylcellulose) (HPC), evaluated on day 20",73 % of control
same,T/C,"dose: 0.37 mg/kg/injection, vehicle: Klucel (hydroxypropylcellulose) (HPC), evaluated on day 20",64 % of control
same,T/C,"dose: 0.75 mg/kg/injection, vehicle: Klucel (hydroxypropylcellulose) (HPC), evaluated on day 20",77 % of control
same,T/C,"dose: 0.78 mg/kg/injection, vehicle: Klucel (hydroxypropylcellulose) (HPC), evaluated on day 20",81 % of control
same,T/C,"dose: 0.78 mg/kg/injection, vehicle: other, evaluated on day 20",122 % of control
same,T/C,"dose: 1.5 mg/kg/injection, vehicle: Klucel (hydroxypropylcellulose) (HPC), evaluated on day 20",70 and 118 % of control
same,T/C,"dose: 1.56 mg/kg/injection, vehicle: Klucel (hydroxypropylcellulose) (HPC), evaluated on day 20",76 % of control
same,T/C,"dose: 3.0 mg/kg/injection, vehicle: Klucel (hydroxypropylcellulose) (HPC), evaluated on day 20",83 and 139 % of control
same,T/C,"dose: 3.12 mg/kg/injection, vehicle: other, evaluated on day 20",60 % of control
same,T/C,"dose: 3.13 mg/kg/injection, vehicle: Klucel (hydroxypropylcellulose) (HPC), evaluated on day 20",65 % of control
same,T/C,"dose: 6.25 mg/kg/injection, vehicle: other, evaluated on day 20",84 % of control
same,T/C,"dose: 12.5 mg/kg/injection, vehicle: other, evaluated on day 20",82 % of control
